In all, about 140,000 compounds went through this assay and about 4,300 (3.1%) were called active. The shares of active, inactive and inconclusive entries below differ from those in the screen.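 How the source made its calls: active means readout at or below -70, meaning at least 70% loss of cells showing the perinucleolar compartment, a nuclear body marking cancer cells; inconclusive means readout between -30 and a set limit; inactive means the rest.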
Assay: High Content Assay for Compounds that inhibit the Assembly of the Perinucleolar Compartment;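 further: plate controls were DMSO wells for no effect and camptothecin positive control wells for full effect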
Details: PC3M PTB-GFP, PNC prevalence imaging, 16 h; at 10 µM; hits give low values
Method in brief: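 Compounds are pinned in duplicate onto adhered PC3M cells stably expressing GFP-tagged PTB and incubated 16 h at 37 C. Cells are then fixed, nuclei stained with Hoechst, and PNC-positive cells counted.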
For `CCN1CCN(c2nc(Nc3ccc(C)c(C)c3)nc(N)c2[N+](=O)[O-])CC1`, the activity change (PNC), negative = inhibition was inconclusive: -77.9%. In the case of `Fc1ccc(CSc2ncnc3scc(-c4ccccc4)c23)cc1`, the activity change (PNC), negative = inhibition is reported as inactive: 26.4%. In the case of `CC(C)Cc1nc(N2CCOCC2)c(C#N)c2c1CCC2`, the activity change (PNC), negative = inhibition is reported as inconclusive: -46.6%. In the case of `COc1cc(S(=O)(=O)N2CCCCC2)ccc1NC(=O)c1ccccc1Cl`, the activity change (PNC), negative = inhibition is reported as active: -100%. In the case of `Cc1ccc2cc(CN(Cc3cccs3)C(=O)c3ccco3)c3nnnn3c2c1C`, the activity change (PNC), negative = inhibition is reported as inconclusive: -35.5%. For `O=C(c1ccc(C23CC4CC(CC(C4)C2)C3)o1)N1CCOCC1`, the activity change (PNC), negative = inhibition was inconclusive: -54.9%. For `Cc1ccc(NC(=O)CCC(=O)NNC(=O)c2ccco2)cc1C`, the activity change (PNC), negative = inhibition was inactive: 4.24%. For `CC(C)CC(=O)N1CCN(Cc2ccc3c(c2)OCO3)CC1`, the activity change (PNC), negative = inhibition was inactive: 13.6%. With `O=S(=O)(c1ccc2nc(-c3ccco3)c(-c3ccco3)nc2c1)N1CCOCC1` the activity change (PNC), negative = inhibition was inconclusive: -48.1%. In the case of `Cn1c(SCC(=O)N2CCCc3ccccc32)nnc1-c1cccs1`, the activity change (PNC), negative = inhibition is reported as inconclusive: -59.3%. In the case of `O=C1c2ccccc2C(=O)N1OS(=O)(=O)c1ccccc1`, the activity change (PNC), negative = inhibition is reported as inconclusive: -65%. In the case of `Cc1cc(C(=O)COC(=O)c2ccc(CO)cc2)c(C)n1CC1COc2ccccc2O1` (configuration not stated), the activity change (PNC), negative = inhibition is reported as inconclusive: -43.4%. With `CCOC(=O)N1CCN(C(=O)c2c(-c3ccccc3)noc2C)CC1` the activity change (PNC), negative = inhibition was inconclusive: -73.8%. For `COc1cc(OC)c(S(=O)(=O)N2CCCCC2)cc1S(=O)(=O)N1CCCCC1`, the activity change (PNC), negative = inhibition was inconclusive: -74.8%. With `COc1cccc(OC)c1C(=O)N1CCN(c2c(Cc3ccccc3)c(C)nc3ncnn23)CC1` the activity change (PNC), negative = inhibition was inconclusive: -32.3%. With `COc1cccc(/C=N/n2c(C)nc3ccccc32)c1OC` the activity change (PNC), negative = inhibition was inactive: 11.2%. In the case of `Cc1ccc(O)c(C2=Nc3ccccc3N=C(c3cccs3)C2)c1`, the activity change (PNC), negative = inhibition is reported as inconclusive: -56%. With `Cc1ccc(Nc2n[nH]c(C)c2[N+](=O)[O-])cc1C` the activity change (PNC), negative = inhibition was inconclusive: -55%. In the case of `COC(=O)Cn1ncc(N2C3CC(CC(C)(C)C3)C2C)c(Cl)c1=O` (configuration not stated), the activity change (PNC), negative = inhibition is reported as inconclusive: -66.3%. In the case of `c1ccc(-c2cnc(CSc3ncnc4sccc34)o2)cc1`, the activity change (PNC), negative = inhibition is reported as inactive: 317%. In the case of `Cc1c(NC(=O)c2cc3ccccc3c(=O)s2)c(=O)n(-c2ccccc2)n1C`, the activity change (PNC), negative = inhibition is reported as inconclusive: -33.7%. With `O=C(Nc1ccc2nn(-c3ccccc3)nc2c1)c1cccs1` the activity change (PNC), negative = inhibition was inconclusive: -35.3%. In the case of `COCc1c(C(=O)OCC(=O)c2c(N)n(CC(C)C)c(=O)n(C)c2=O)oc2ccccc12`, the activity change (PNC), negative = inhibition is reported as inconclusive: -53.4%. In the case of `COc1ccc(C)cc1NC(=O)CSc1nnc(COc2ccccc2)n1Cc1ccco1`, the activity change (PNC), negative = inhibition is reported as inconclusive: -38.5%. With `Cc1ccc(CNC(=O)CCS(=O)(=O)c2ccc(Br)s2)o1` the activity change (PNC), negative = inhibition was inactive: -1.83%. For `O=S(=O)(Nc1nc2ccccc2nc1NCCO)c1cccc(Cl)c1`, the activity change (PNC), negative = inhibition was inconclusive: -69.2%. With `Cc1cccc(C)c1NC(=O)COC(=O)Cc1ccsc1` the activity change (PNC), negative = inhibition was inactive: -12.5%. In the case of `CCOC(=O)CSc1nc(C)cc(Oc2ccc(=O)n(C)n2)n1`, the activity change (PNC), negative = inhibition is reported as inactive: 31.9%. In the case of `Cc1oc(CC(C)C)cc1C(=O)Nc1cccc2ccccc12`, the activity change (PNC), negative = inhibition is reported as inconclusive: -55.7%. With `CCN(CC)S(=O)(=O)c1cc(C)ccc1SC` the activity change (PNC), negative = inhibition was inactive: 42.8%. For `CC(C)(C)CC(=O)NCc1ccc(F)cc1`, the activity change (PNC), negative = inhibition was inactive: -17%. For `CCS(=O)(=O)N1CCC(C(=O)NCC2CCCO2)CC1` (configuration not stated), the activity change (PNC), negative = inhibition was inconclusive: -57.2%. With `Cc1cc(S(=O)(=O)N2CCN(c3c(C)cccc3C)CC2)ccc1F` the activity change (PNC), negative = inhibition was inactive: -7.56%. In the case of `c1ccc(-n2ncc3c(NCC4CCCO4)ncnc32)cc1` (configuration not stated), the activity change (PNC), negative = inhibition is reported as inconclusive: -46.9%. With `Nc1c2c(nc3ccccc13)N(c1ccccc1)CC2` the activity change (PNC), negative = inhibition was inconclusive: -36.9%. For `O=C(CN(CCc1ccccc1)C(=O)CNS(=O)(=O)c1ccccc1)NCc1ccco1`, the activity change (PNC), negative = inhibition was inconclusive: -66.2%. With `S=c1[nH]nc(-c2ccccc2Cl)n1CC1CCCO1` (configuration not stated) the activity change (PNC), negative = inhibition was inconclusive: -61.8%. For `C=CCN1C(c2cccc(C(F)(F)F)c2)=CS/C1=C(/C#N)c1nnc(N2CCOCC2)n1-c1ccccc1`, the activity change (PNC), negative = inhibition was inactive: 22.9%. With `O=C1NCCN1C(=O)N(c1ccccc1)c1ccccc1` the activity change (PNC), negative = inhibition was active: -124%. For `CC(=O)c1cccc(NC(=O)COC(=O)[C@@H](NC(=O)OCc2ccccc2)C(C)C)c1`, the activity change (PNC), negative = inhibition was inconclusive: -38.9%. With `O=C(NCCNc1ccc([N+](=O)[O-])cc1C(F)(F)F)c1ccccc1` the activity change (PNC), negative = inhibition was inconclusive: -77.6%. With `CCOc1cc(CNCCc2ccc(S(N)(=O)=O)cc2)cc(Cl)c1OCc1ccccc1` the activity change (PNC), negative = inhibition was inconclusive: -34.2%. In the case of `COc1ccc(Cl)cc1Nc1nc(C)cc(=O)[nH]1`, the activity change (PNC), negative = inhibition is reported as inconclusive: -31.9%. With `CC(C)CNc1nc(N)c([N+](=O)[O-])c(NCC2CCCO2)n1` (configuration not stated) the activity change (PNC), negative = inhibition was inconclusive: -41.3%. In the case of `O=C(Cc1ccccc1)NCCn1ccc2ccccc21`, the activity change (PNC), negative = inhibition is reported as inconclusive: -59.6%. For `Cc1ccc(C)c(Cn2c(=O)n(CCC(=O)NCc3ccco3)c(=O)c3ccccc32)c1`, the activity change (PNC), negative = inhibition was inconclusive: -35.7%. With `Cc1ccccc1-c1n[nH]c(=S)n1/N=C/c1c(C)nn(-c2ccccc2)c1C` the activity change (PNC), negative = inhibition was inconclusive: -52.5%. With `COc1ccc(C(=O)Nc2nc3ccc4nc(C)sc4c3s2)cc1` the activity change (PNC), negative = inhibition was inconclusive: -40.8%. For `COc1ccc(S(=O)(=O)Cc2ccc(C(=O)N3CCOCC3)o2)cc1`, the activity change (PNC), negative = inhibition was inconclusive: -48.1%. With `Cc1ccc(-c2nsc(SCC(=O)Nc3ccc4c(c3)OCO4)n2)cc1` the activity change (PNC), negative = inhibition was inconclusive: -50.4%. For `O=C(Cn1c(=O)oc2ccccc21)Nc1nc(-c2ccc(Br)cc2)cs1`, the activity change (PNC), negative = inhibition was inconclusive: -35.3%. For `Nc1cc(=O)[nH]c(SCC(=O)Nc2ccc(Br)cc2)n1`, the activity change (PNC), negative = inhibition was inconclusive: -42.8%. In the case of `CCOC(=O)N1CCC(NC(=O)C2CCN(C(=O)N3CC(C)Oc4ccc(C)cc43)CC2)CC1` (configuration not stated), the activity change (PNC), negative = inhibition is reported as inconclusive: -55.2%. For `COc1ccccc1NC(=O)NC(=O)N(C(C)C)S(C)(=O)=O`, the activity change (PNC), negative = inhibition was inconclusive: -44.9%. For `CCc1nc(SCC(=O)N2CCC(Cc3ccccc3)CC2)c2c(=O)n(C)c(=O)n(C)c2n1`, the activity change (PNC), negative = inhibition was inactive: 39.7%. In the case of `Cc1sc2c(c1C)c(=O)nc1n2Cc2ccccc2-1`, the activity change (PNC), negative = inhibition is reported as inconclusive: -30.7%. In the case of `Cc1ccccc1-n1c(C)cc(/C=N/Nc2ccc([N+](=O)[O-])cn2)c1C`, the activity change (PNC), negative = inhibition is reported as inconclusive: -78.3%.

From PubChem BioAssay AID2417 (National Center for Advancing Translational Sciences (NCATS), 2010)
